These are yes or no findings as the source states them, for the method shown. Some results given as binding are weak or reduced against the parent protein; the word gives no strength. Tags and fused reporters may be left off the sequences shown.
Target: human TRAIL-R2:Fc (extracellular domain of human TRAIL-R2 fused to human IgG constant domain, from 293T cells) (human) (UniProt O14763)
Assay: binding assay (ELISA-based)

The chains behind the UniProt entries cited, without tags or fusion partners. Where a name states a change or a piece, a line headed by the entry shows the natural chain unless it says otherwise.
UniProt O14763: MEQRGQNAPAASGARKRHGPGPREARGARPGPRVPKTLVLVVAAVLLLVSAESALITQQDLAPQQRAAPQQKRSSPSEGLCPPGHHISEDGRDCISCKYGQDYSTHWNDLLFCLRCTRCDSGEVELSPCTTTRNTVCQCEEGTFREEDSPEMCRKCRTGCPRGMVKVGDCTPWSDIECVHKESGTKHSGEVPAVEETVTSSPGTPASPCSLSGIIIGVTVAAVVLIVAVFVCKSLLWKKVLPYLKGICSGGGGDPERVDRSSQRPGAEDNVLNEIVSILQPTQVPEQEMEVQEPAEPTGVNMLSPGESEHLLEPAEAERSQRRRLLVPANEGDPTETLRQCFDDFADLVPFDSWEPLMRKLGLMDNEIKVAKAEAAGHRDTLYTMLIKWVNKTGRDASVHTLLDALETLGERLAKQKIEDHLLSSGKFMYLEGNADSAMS

B1: UL141-Fc (UL141 ectodomain fused to the Fc region of human IgG1) (Fc fusion)
chain: DIAEKMWAENYETTSPAPVLVAEGEQVTIPCTVMTHSWPMVSIRARFCRSHDGSDELILDAVKGHRLMNGLQYRLPYATWNFSQLHLGQIFSLTFNVSTDTAGMYECVLRNYSHGLIMQRFVILTQLETLSRPDEPCCTPALGRYSLGDQIWSPTPWRLRNHDCGMYRGFQRNYFYIGRADAEDCWKPACPDEEPDRCWTVIQRYRLPGDCYRSQPHPPKFLPVTPAPPADIDTGMS
  binding: binds

— patent US20140134647A1 (LA JOLLA INSTITUTE FOR ALLERGY AND IMMUNOLOGY, published 2014)
